Assay [1] addresses Myzus persicae effector Mp64, yeast two-hybrid bait (Myzus persicae). The assay is described as follows: two-hybrid; independent co-transformation of effector bait with full-length SIZ1 prey in yeast, reporter assays. (A reporter such as luciferase makes a cellular process visible.)
In assay [2] the target is GFP-Mp64 (Myzus persicae). Description: co-IP; N-terminal GFP-tagged effectors and C-terminal 10xMyc-tagged SIZ1 co-expressed in N. benthamiana leaves (48 h); extract in GTEN buffer (10% glycerol, 25 mM Tris-HCl pH 7.5, 150 mM NaCl, 1 mM EDTA) with 0.1% NP-40 and 10 mM DTT; GFP-Trap-M magnetic beads; blots with GFP and cMyc antibodies.
The target in assay [3] is GFP-CRN83_152 (Phytophthora capsici) (UniProt P0CV73). Described as above.

Amino acid sequences for entries named in this document (tags omitted). A change or cut given only in a name is not applied to a line headed by its entry.
UniProt P0CV73: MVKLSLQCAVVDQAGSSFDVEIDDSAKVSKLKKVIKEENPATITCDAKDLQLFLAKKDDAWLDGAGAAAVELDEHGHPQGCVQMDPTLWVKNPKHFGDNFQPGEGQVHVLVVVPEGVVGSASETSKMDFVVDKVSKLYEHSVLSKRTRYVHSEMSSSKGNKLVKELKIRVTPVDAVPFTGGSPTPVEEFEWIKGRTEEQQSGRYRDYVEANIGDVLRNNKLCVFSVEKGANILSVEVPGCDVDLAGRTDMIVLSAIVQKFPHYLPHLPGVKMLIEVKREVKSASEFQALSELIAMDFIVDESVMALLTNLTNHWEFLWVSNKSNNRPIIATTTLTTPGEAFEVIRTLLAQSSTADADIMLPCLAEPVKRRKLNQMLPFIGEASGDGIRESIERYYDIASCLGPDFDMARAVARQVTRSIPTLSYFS

No constants are given. Whether binding was seen depends on the method and setting. Binding calls can cover weak binding; strength is not graded here. For part of these data: In cells and extracts the contact can be indirect. For part of these data: Sequences can lack the tags named with a protein.

This passage reports binding results from publication PMC9545238.

B1: full-length AtSIZ1 (Arabidopsis thaliana SIZ1), yeast two-hybrid prey (protein, UniProt Q680Q4 1-884)
chain: MDLEANCKEKLSYFRIKELKDVLTQLGLSKQGKKQELVDRILTLLSDEQAARLLSKKNTVAKEAVAKLVDDTYRKMQVSGASDLASKGQVSSDTSNLKVKGEPEDPFQPEIKVRCVCGNSLETDSMIQCEDPRCHVWQHVGCVILPDKPMDGNPPLPESFYCEICRLTRADPFWVTVAHPLSPVRLTATTIPNDGASTMQSVERTFQITRADKDLLAKPEYDVQAWCMLLNDKVLFRMQWPQYADLQVNGVPVRAINRPGGQLLGVNGRDDGPIITSCIRDGVNRISLSGGDVRIFCFGVRLVKRRTLQQVLNLIPEEGKGETFEDALARVRRCIGGGGGDDNADSDSDIEVVADFFGVNLRCPMSGSRIKVAGRFLPCVHMGCFDLDVFVELNQRSRKWQCPICLKNYSVEHVIVDPYFNRITSKMKHCDEEVTEIEVKPDGSWRVKFKRESERRELGELSQWHAPDGSLCPSAVDIKRKMEMLPVKQEGYSDGPAPLKLGIRKNRNGIWEVSKPNTNGLSSSNRQEKVGYQEKNIIPMSSSATGSGRDGDDASVNQDAIGTFDFVANGMELDSISMNVDSGYNFPDRNQSGEGGNNEVIVLSDSDDENDLVITPGPAYSGCQTDGGLTFPLNPPGIINSYNEDPHSIAGGSSGLGLFNDDDEFDTPLWSFPSETPEAPGFQLFRSDADVSGGLVGLHHHSPLNCSPEINGGYTMAPETSMASVPVVPGSTGRSEANDGLVDNPLAFGRDDPSLQIFLPTKPDASAQSGFKNQADMSNGLRSEDWISLRLGDSASGNHGDPATTNGINSSHQMSTREGSMDTTTETASLLLGMNDSRQDKAKKQRSDNPFSFPRQKRSNNEQDHQTRHRSLNKICIILCAGKN
As for B1, the binding result in assay [1] was “binds”.

B2: AtSIZ1-cMyc(10x) (protein, UniProt Q680Q4 1-884)
chain: MDLEANCKEKLSYFRIKELKDVLTQLGLSKQGKKQELVDRILTLLSDEQAARLLSKKNTVAKEAVAKLVDDTYRKMQVSGASDLASKGQVSSDTSNLKVKGEPEDPFQPEIKVRCVCGNSLETDSMIQCEDPRCHVWQHVGCVILPDKPMDGNPPLPESFYCEICRLTRADPFWVTVAHPLSPVRLTATTIPNDGASTMQSVERTFQITRADKDLLAKPEYDVQAWCMLLNDKVLFRMQWPQYADLQVNGVPVRAINRPGGQLLGVNGRDDGPIITSCIRDGVNRISLSGGDVRIFCFGVRLVKRRTLQQVLNLIPEEGKGETFEDALARVRRCIGGGGGDDNADSDSDIEVVADFFGVNLRCPMSGSRIKVAGRFLPCVHMGCFDLDVFVELNQRSRKWQCPICLKNYSVEHVIVDPYFNRITSKMKHCDEEVTEIEVKPDGSWRVKFKRESERRELGELSQWHAPDGSLCPSAVDIKRKMEMLPVKQEGYSDGPAPLKLGIRKNRNGIWEVSKPNTNGLSSSNRQEKVGYQEKNIIPMSSSATGSGRDGDDASVNQDAIGTFDFVANGMELDSISMNVDSGYNFPDRNQSGEGGNNEVIVLSDSDDENDLVITPGPAYSGCQTDGGLTFPLNPPGIINSYNEDPHSIAGGSSGLGLFNDDDEFDTPLWSFPSETPEAPGFQLFRSDADVSGGLVGLHHHSPLNCSPEINGGYTMAPETSMASVPVVPGSTGRSEANDGLVDNPLAFGRDDPSLQIFLPTKPDASAQSGFKNQADMSNGLRSEDWISLRLGDSASGNHGDPATTNGINSSHQMSTREGSMDTTTETASLLLGMNDSRQDKAKKQRSDNPFSFPRQKRSNNEQDHQTRHRSLNKICIILCAGKN
Take B2: the values for the binding result in assay [2] and in assay [3] were “binds” and “binds weakly”, respectively.
